These are yes or no findings as the source states them, for the method shown. Where a sequence is shown, tags or fusion partners need not be part of it.
Target: Rad50 K81I (S. pombe), two-hybrid fusion (S. pombe) (UniProt Q9UTJ8)
Assay: two-hybrid; GBD and GAD plasmids (pGBKT7, pGADT7) co-transformed in strain PJ69-4A; HIS3 and ADE2 reporters, 3 mM 3-aminotriazole in some plates; 30 °C, 3-4 days

Sequences of proteins named here, by UniProt entry; tags and fusion partners are left off. A change or cut given only in a name is not applied to a line headed by its entry.
UniProt Q9UTJ8: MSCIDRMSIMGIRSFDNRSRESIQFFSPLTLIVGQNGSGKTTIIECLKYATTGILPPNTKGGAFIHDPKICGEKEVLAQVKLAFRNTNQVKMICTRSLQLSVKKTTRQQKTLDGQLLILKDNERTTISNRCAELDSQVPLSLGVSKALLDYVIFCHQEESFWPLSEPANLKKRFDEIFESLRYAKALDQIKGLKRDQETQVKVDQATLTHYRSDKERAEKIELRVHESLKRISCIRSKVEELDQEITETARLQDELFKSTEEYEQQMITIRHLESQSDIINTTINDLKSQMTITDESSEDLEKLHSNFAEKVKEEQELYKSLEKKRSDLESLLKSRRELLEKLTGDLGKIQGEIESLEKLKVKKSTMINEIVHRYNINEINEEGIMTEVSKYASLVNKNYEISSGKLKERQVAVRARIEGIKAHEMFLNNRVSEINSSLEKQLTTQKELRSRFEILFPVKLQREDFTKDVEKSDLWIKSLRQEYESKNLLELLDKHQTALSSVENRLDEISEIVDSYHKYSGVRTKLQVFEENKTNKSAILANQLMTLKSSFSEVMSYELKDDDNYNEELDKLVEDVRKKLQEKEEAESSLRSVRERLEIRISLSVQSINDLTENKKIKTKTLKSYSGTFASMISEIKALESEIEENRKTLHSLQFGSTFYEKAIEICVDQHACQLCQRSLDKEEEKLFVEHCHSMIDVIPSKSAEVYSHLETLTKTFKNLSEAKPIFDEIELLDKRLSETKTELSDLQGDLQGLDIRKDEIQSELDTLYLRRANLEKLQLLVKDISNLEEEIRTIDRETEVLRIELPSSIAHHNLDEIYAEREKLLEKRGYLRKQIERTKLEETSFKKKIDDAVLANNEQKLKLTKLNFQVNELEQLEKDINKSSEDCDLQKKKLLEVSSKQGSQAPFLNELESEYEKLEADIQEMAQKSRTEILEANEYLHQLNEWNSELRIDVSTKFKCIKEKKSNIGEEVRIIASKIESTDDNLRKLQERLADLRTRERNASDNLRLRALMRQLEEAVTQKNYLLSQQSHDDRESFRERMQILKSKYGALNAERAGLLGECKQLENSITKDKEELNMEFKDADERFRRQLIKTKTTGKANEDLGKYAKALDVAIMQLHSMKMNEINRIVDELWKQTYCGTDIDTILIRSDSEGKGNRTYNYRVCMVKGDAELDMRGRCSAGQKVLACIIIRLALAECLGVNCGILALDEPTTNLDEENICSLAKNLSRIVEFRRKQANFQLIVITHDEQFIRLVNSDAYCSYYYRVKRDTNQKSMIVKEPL

B1: Taz1 (S. pombe), two-hybrid fusion (protein, UniProt P79005 1-663)
chain: MISVQSTETIQKVLENEGDQQFDKEVVQNSDSNIETGQISDSLTKAVEERAETESSSNLSNFTTSESESSKPAYCFNSHSQNMAEGSISIPVISHSMNVENEVSTAEGQDSRTGESENDQNAMIVRSIWDIEKASLLVNDCQNIANMAEQKVMMVSAIFSESSKDIVNPESFSERLGKETVKDLYEFNEQLTTKYGLEFRTIFFSYIRKYDAYWCLFEDLEKPLKSIQFFTGLIDLLDNTNKHLTLRSIVLDALLSADEEDSFYGDALVLFEELVIRYFGTDSNPSIDASEFILSCLPYTSLDALNVVCGQVWKSQKICDFLKSTIGNTSNSPLQLRASFPAFVNAVIHFLLEFKNVRRLERKDLSVKGMLYDSDSQQILNRLRERVSGSTAQSADEASGHESDASEDTFSERTLGLNSIDNTEISEVVSLGLVSSALDKITGLLSADNLSETVSQARDFSHTLSKSLKSRAKSLSQKEAANRSKLIAKRGDNLRREASLSSEQDDLSEDFPPVRESDEQESRSGGRSSAMRVSIERSAARSGTRRSQGNPYEGYRTRRKWTDEEENELYEMISQHGCCWSKIIHIQKLENGPLKTFGPTQIKDKARLIKARFMKQNRLQELYSKSLNWKNVTVGQAYCELHKIPYIEATPPLLREELVNYQS
binding: no binding

— PMC8219681, “Inhibition of MRN activity by a telomere protein motif” (Nature Communications, 2021)
